The inconclusive results got no clear call from the source; some entries with a clear call stand among them for comparison. Potencies beside an inconclusive call are fits to weak or partial responses and may not hold up. The source made the active and inactive calls. Unless noted, calls come from the whole dose curve; as a rule, active = well fitted cell-killing curve with a large enough effect; inconclusive = small, poorly fitted or top-dose-only effect, or effect the other way; inactive = no such curve, though single readings can be large or run the other way.
Key:
[1] = Quantitative High-Throughput drug screen in 47 multiple myeloma cell lines against the NCATS MIPE library collection: UTMC2_PLB cell viability assay (AID 1919868); settings: CellTiter-Glo ATP luminescence, 48 h; viability (% of DMSO control): at 45.8 µM (top of the series); note: nearly all actives have a fitted effect of over 55% in size;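 for viability (% of DMSO control): 100% = DMSO-only wells and 0% = media-only wells without cells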
Outline: (§1)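 Plated at 500 cells per well, myeloma lines received MIPE 4.0 compounds by pin tool. Following 48 h culture at 37 °C, CellTiter-Glo luminescence gave viability relative to DMSO and media-only controls.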

[2] = Quantitative High-Throughput drug screen in 47 multiple myeloma cell lines against the NCATS MIPE library collection: RPMI8226_ATCC cell viability assay (AID 1919871); note: nearly all actives have a fitted effect of over 30% in size
Outline: as §1

[3] = Quantitative High-Throughput drug screen in 47 multiple myeloma cell lines against the NCATS MIPE library collection: OPM2_DSMZ cell viability assay (AID 1919872); note: nearly all actives have a fitted effect of over 30% in size
Outline: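 Steps: seed 500 cells per well; pin-transfer MIPE 4.0 library; incubate 48 h at 37C, 5% CO2, humidified; add CellTiter-Glo, 5 min room temperature; read luminescence.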

[4] = qHTS for identification of novel therapeutic agents for treatment of microphthalmiaassociated transcription factor (MiT) renal cell carcinoma (RCC) (AID 1963991; calls by dose curve); settings: TFE3-RCC UOK109 viability, CellTiter-Glo, 48 h; active = Z-AUC below -0.8 in all three lines
Outline: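 Three TFE3-fusion RCC cell lines (UOK109, UOK124, UOK145), 500 cells/well, were exposed to the 1912-compound MIPE 4.0 library for 48 hours at 37 C. Viability was read by CellTiter-Glo luminescence, normalised to DMSO (100%) and empty wells (0%), with 11-concentration curve fits.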

[5] = Quantitative High-Throughput drug screen in 47 multiple myeloma cell lines against the NCATS MIPE library collection: KMS11_JCRBsus cell viability assay (AID 1919873); settings: KMS11 myeloma viability, CellTiter-Glo ATP luminescence, 48 h; viability (% of control): at 45.8 µM (top of the series); note: nearly all actives have a fitted effect of over 50% in size;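 for viability (% of control): 100% = DMSO-only wells and 0% = media-only wells without cells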
Outline: as §1

[6] = Quantitative High-Throughput drug screen in 47 multiple myeloma cell lines against the NCATS MIPE library collection: PE2_PLB cell viability assay (AID 1919869); settings: PE2_PLB myeloma cells viability, ATP luminescence, 48 h; viability (% of control): at 45.8 µM (top of the series); note: nearly all actives have a fitted effect of over 35% in size;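 for viability (% of control): 100% = DMSO-only wells and 0% = cell-free media-only wells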
Outline: as §1

[7] = Quantitative High-Throughput drug screen in 47 multiple myeloma cell lines against the NCATS MIPE library collection: KMS28BM_JCRB cell viability assay (AID 1919874); note: nearly all actives have a fitted effect of over 35% in size
Outline: as §1

[8] = Quantitative High-Throughput drug screen in 47 multiple myeloma cell lines against the NCATS MIPE library collection: PCM6_Riken cell viability assay (AID 1919870); settings: CellTiter-Glo ATP, 48 h; viability (% of control): at 45.8 µM (top of the series); note: nearly all actives have a fitted effect of over 30% in size;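 for viability (% of control): 100% = DMSO-only wells and 0% = media-only wells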
Outline: as §1
Potency is the fitted concentration of half-maximal effect.

Structure (SMILES): CN(C)c1ccc2cc(C(=O)N[C@@H](CCCN=C(N)CCl)C(=O)NCc3ccccc3)ccc2c1
- Potency [1]: inconclusive: 18.7 µM [cytotoxic, partial curve, poor fit]
- Potency [2]: active: 18.7 µM
- Potency [3]: active: 18.7 µM
- Potency [4]: inconclusive: 14.8 µM [falling, partial curve]

Structure (SMILES): Oc1ccc2ccccc2c1SSc1c(O)ccc2ccccc12
- Potency [1]: inconclusive: 37.2 µM [cytotoxic, partial curve, poor fit]
- Potency [5]: active: 13.2 µM
- Potency [4]: inconclusive: 37.2 µM [falling, single point]

Structure (SMILES): CCN(CC)C(=S)SSC(=S)N(CC)CC
- Potency [1]: active: 0.0118 µM
- viability (% of control) [6]: inconclusive: 6% [cytotoxic]
- Potency [4]: inconclusive: 8.33 µM [falling, partial curve]

Structure (SMILES): N#CC(=C(N)Sc1ccccc1N)C(C#N)=C(N)Sc1ccccc1N
- Potency [1]: active: 8.33 µM
- Potency [5]: active: 8.33 µM
- Potency [7]: inconclusive: 11.8 µM [cytotoxic, single point]
- Potency [4]: inconclusive: 0.332 µM [falling, full curve]

Structure (SMILES): CCN1CCC(n2cc(CNc3cc(Cl)c4ncc(C#N)c(Nc5ccc(F)c(Cl)c5)c4c3)nn2)CC1
- Potency [1]: inconclusive: 37.2 µM [cytotoxic, partial curve, poor fit]
- Potency [6]: inconclusive: 18.7 µM [cytotoxic, partial curve]
- Potency [3]: inconclusive: 6.62 µM [cytotoxic, partial curve, poor fit]
- Potency [4]: inconclusive: 14.8 µM [falling, partial curve]

Structure (SMILES): O=C1c2c(O)ccc(O)c2C(=O)c2c(NCCNCCO)ccc(NCCNCCO)c21
- viability (% of DMSO control) [1]: inconclusive: 3.82% [cytotoxic]
- Potency [6]: active: 0.166 µM
- Potency [8]: active: 0.935 µM
- Potency [7]: active: 0.662 µM
- Potency [4]: active: 1.05 µM

Structure (SMILES): O=c1c(-c2ccc(O)cc2)coc2cc(O)ccc12
- Potency [1]: inactive
- Potency [8]: inactive
- Potency [2]: inconclusive: 0.662 µM [cytotoxic, partial curve, poor fit]

Structure (SMILES): O=C(Nc1ccccc1-c1cn2c(CN3CCNCC3)csc2n1)c1cnc2ccccc2n1
- Potency [1]: inconclusive: 16.6 µM [cytotoxic, partial curve, poor fit]
- Potency [7]: inconclusive: 33.2 µM [cytotoxic, single point]
- Potency [4]: inconclusive: 26.4 µM [falling, single point]

Structure (SMILES): CCOC(=O)N1CCN([N+]([O-])=NOc2ccc([N+](=O)[O-])cc2[N+](=O)[O-])CC1
- Potency [1]: active: 0.526 µM
- Potency [8]: active: 0.743 µM
- Potency [7]: active: 0.833 µM
- Potency [4]: inconclusive: 16.6 µM [falling, partial curve]

Structure (SMILES): CNC(=O)c1ccc(C)c(-n2c(C)cc(OCc3ccc(F)cc3F)c(Br)c2=O)c1
- Potency [1]: inconclusive: 13.2 µM [cytotoxic, partial curve, poor fit]
- Potency [6]: inconclusive: 16.6 µM [cytotoxic, partial curve]
- Potency [5]: inconclusive: 23.5 µM [cytotoxic, partial curve]

Structure (SMILES): CCc1ccc(OCc2ccccc2C(=O)Nc2ccc3nc(C)cc(N)c3c2)cc1
- Potency [1]: active: 3.32 µM
- Potency [4]: inconclusive: 9.35 µM [falling, full curve]

Structure (SMILES): COCCn1c2c([n+](Cc3cnccn3)c1C)C(=O)c1ccccc1C2=O
- Potency [1]: active: 0.0418 µM
- Potency [3]: active: 0.059 µM
- Potency [5]: active: 0.0132 µM
- Potency [4]: active: 0.0833 µM

Structure (SMILES): CN1CCC(=C2c3ccccc3CCc3sccc32)CC1
- Potency [1]: inconclusive: 0.0013 µM [rising, full curve, poor fit]
- Potency [8]: inconclusive: 20.9 µM [cytotoxic, single point]
- Potency [5]: inconclusive: 33.2 µM [cytotoxic, single point]
- Potency [4]: inconclusive: 18.7 µM [falling, partial curve]

Structure (SMILES): N#CC1(c2ccc(NC(=O)c3cccnc3NCc3ccncc3)cc2)CCCC1
- Potency [1]: inconclusive: 0.0935 µM [rising, full curve, poor fit]
- Potency [5]: inconclusive: 5.9 µM [cytotoxic, partial curve]
- Potency [7]: inconclusive: 5.9 µM [cytotoxic, partial curve, poor fit]

Structure (SMILES): O=c1c(-c2ccc(O)cc2)coc2cc(OC3O[C@H](CO)[C@H](O)[C@H](O)[C@H]3O)cc(O)c12 (stereo not given in full)
- Potency [1]: active: 5.9 µM
- Potency [5]: inconclusive: 1.18 µM [cytotoxic, full curve, poor fit]
- Potency [7]: inconclusive: 0.0418 µM [cytotoxic, full curve, poor fit]
- Potency [4]: inconclusive: 11.8 µM [falling, partial curve]

Structure (SMILES): CS(=O)(=O)N(Cc1ccco1)CC(O)Cn1c2ccccc2c2ccccc21 (stereo not given)
- Potency [1]: inactive
- Potency [3]: inconclusive: 16.6 µM [cytotoxic, partial curve, poor fit]
- Potency [5]: inconclusive: 23.5 µM [cytotoxic, partial curve, poor fit]
- Potency [4]: inconclusive: 26.4 µM

Structure (SMILES): CC(C(=O)O)c1cccc(C(=O)c2ccccc2)c1 (stereo not given)
- Potency [1]: inconclusive: 37.2 µM [cytotoxic, partial curve, poor fit]
- Potency [5]: inactive
- Potency [7]: inactive
